PubChem BioAssay AID504791 – Drosophila RNAi Screening Center | 2011
The screen tested about 23,000 reagents; below is a random part of those with a known target gene and a result. Of all reagents, 199 (0.86%) are marked active. 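Plate-scaled ratios behind the calls are not deposited; printed light signals are raw; many rows marked increased or decreased are still called inactive.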 Reagent sequences are not shown.

Assay: 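Genes of the fly required for silencing by miRNA, siRNA or endo-siRNA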 (primary screen)
Cell system: Drosophila S2-derived reporter cells
Knock-down reagent: long dsRNA against Drosophila genes, about 150-250 ng dsRNA per well (siRNA assay); about 80-120 ng (miRNA assay)
Duration: about 5 days (siRNA assay); about 4 days (miRNA assay)
Conditions: copper sulfate induction of reporters: 25 µM (siRNA assay); 200 mM stated (miRNA assay), 1-2 days before reading
Measurement: 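Per-well ratio of Renilla over firefly light, expressed relative to that plate's average ratio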
Reading the numbers: siRNA reporter hit score: higher = 3 marks a strong hit with raised ratio; -3 a strong hit with lowered ratio
Units: stable assay Renilla, run 1 in luminescence; stable assay firefly, run 1 in luminescence
Call rule: 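a well was a first-pass pick when its plate-scaled ratio rose above 1.5 (siRNA assay) or 1.6 (miRNA assay), or dropped below 0.6; a gene counted only if two separate dsRNAs agreed on retest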

CG2061 [DRSC19348] scored stable assay Renilla, run 1 = 7902; stable assay firefly, run 1 = 5.10e5; inactive.
For Vha14-2 [DRSC12145], the values are stable assay Renilla, run 1 = 6334; stable assay firefly, run 1 = 4.19e5; inactive.
After knock-down of Ubr1 [DRSC20148], the screen gave stable assay Renilla, run 1 = 9869; stable assay firefly, run 1 = 4.12e5; inactive.
Against CCAP-R [DRSC14891], the values are stable assay Renilla, run 1 = 7248; stable assay firefly, run 1 = 2.74e5; inactive.
With knock-down of CCAP-R [DRSC15967], the record shows stable assay Renilla, run 1 = 6656; stable assay firefly, run 1 = 3.16e5; inactive.
Depletion of CG8312 [DRSC16406] gave: stable assay Renilla, run 1 = 5702; stable assay firefly, run 1 = 4.16e5; inactive.
CG9825 [DRSC04569] scored stable assay Renilla, run 1 = 6611; stable assay firefly, run 1 = 3.95e5; inactive.
With knock-down of Lar [DRSC01707] the results were stable assay Renilla, run 1 = 6267; stable assay firefly, run 1 = 3.76e5; inactive.
Against Lar [DRSC03361], the values are stable assay Renilla, run 1 = 78810; stable assay firefly, run 1 = 1.82e6; inactive.
Against fusl [DRSC02351] the deposit lists stable assay Renilla, run 1 = 1.19e5; stable assay firefly, run 1 = 1.06e5; inactive.
Depletion of CG15376 (retired record) [DRSC18046] came out at: stable assay Renilla, run 1 = 6084; stable assay firefly, run 1 = 4.79e5; inactive.
After knock-down of Pcf11 [DRSC05983], the screen gave stable siRNA reporter change reporter ratio raised past the hit cutoff; stable assay Renilla, run 1 = 10658; stable assay firefly, run 1 = 3.54e5; inactive.
Against Pcf11 [DRSC23350], the values are miRNA reporter change reporter ratio lowered past the hit cutoff; active.
CG5172 [DRSC19936] scored stable assay Renilla, run 1 = 4890; stable assay firefly, run 1 = 4.98e5; inactive.
Fbw5 [DRSC03146] gave stable assay Renilla, run 1 = 6126; stable assay firefly, run 1 = 3.59e5; inactive.
CG15279 [DRSC01935] gave stable assay Renilla, run 1 = 57920; stable assay firefly, run 1 = 1.29e6; inactive.
Silencing of Spindly [DRSC00430] came out at: stable assay Renilla, run 1 = 9354; stable assay firefly, run 1 = 3.59e5; inactive.
For CG14246 [DRSC14741], the entry reads stable assay Renilla, run 1 = 3323; stable assay firefly, run 1 = 3.58e5; inactive.
Depletion of PNUTS [DRSC00638] gave: siRNA reporter hit score -3; stable assay Renilla, run 1 = 37344; stable assay firefly, run 1 = 1.09e5; inactive.
Silencing of PNUTS [DRSC22136] came out at: stable assay Renilla, run 1 = 8787; stable assay firefly, run 1 = 5.66e5; inactive.
Silencing of CG15472 [DRSC18055] gave: stable assay Renilla, run 1 = 5999; stable assay firefly, run 1 = 2.83e5; inactive.
After knock-down of CG11262 [DRSC09831], the screen gave stable assay Renilla, run 1 = 6607; stable assay firefly, run 1 = 4.47e5; inactive.
For CG16922 (retired record) [DRSC19758], the values are stable assay Renilla, run 1 = 5086; stable assay firefly, run 1 = 3.19e5; inactive.
CG16922 (retired record) [DRSC23140] scored stable assay Renilla, run 1 = 4671; stable assay firefly, run 1 = 3.05e5; inactive.
CG33181 [DRSC17971] showed stable assay Renilla, run 1 = 5411; stable assay firefly, run 1 = 3.33e5; inactive.
For CG33181 [DRSC22376], the values are stable assay Renilla, run 1 = 8938; stable assay firefly, run 1 = 5.57e5; inactive.
Against Mcm7 [DRSC11219] the deposit lists stable assay Renilla, run 1 = 8284; stable assay firefly, run 1 = 6.17e5; inactive.
Against Task6 [DRSC16530] the deposit lists stable assay Renilla, run 1 = 6574; stable assay firefly, run 1 = 3.67e5; inactive.

Called active (from the list above):
Pcf11 [DRSC23350] → miRNA reporter change: reporter ratio lowered past the hit cutoff; call: active
